From paper PMC10721647
These are yes or no findings as the source states them, for the method shown. Binding seen in cells or lysates may run through a third protein. Some binding calls cover weakened binding; strength is not graded here.

The chains behind the UniProt entries cited, without tags or fusion partners. Residues count along the entry.
UniProt P03186, residues 1-235: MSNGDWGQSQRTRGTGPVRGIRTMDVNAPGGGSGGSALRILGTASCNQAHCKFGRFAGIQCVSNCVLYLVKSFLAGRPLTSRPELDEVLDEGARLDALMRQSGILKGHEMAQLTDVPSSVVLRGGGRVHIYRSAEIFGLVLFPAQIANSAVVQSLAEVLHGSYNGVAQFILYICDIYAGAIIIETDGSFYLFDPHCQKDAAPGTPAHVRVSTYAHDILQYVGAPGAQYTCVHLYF
UniProt O94822: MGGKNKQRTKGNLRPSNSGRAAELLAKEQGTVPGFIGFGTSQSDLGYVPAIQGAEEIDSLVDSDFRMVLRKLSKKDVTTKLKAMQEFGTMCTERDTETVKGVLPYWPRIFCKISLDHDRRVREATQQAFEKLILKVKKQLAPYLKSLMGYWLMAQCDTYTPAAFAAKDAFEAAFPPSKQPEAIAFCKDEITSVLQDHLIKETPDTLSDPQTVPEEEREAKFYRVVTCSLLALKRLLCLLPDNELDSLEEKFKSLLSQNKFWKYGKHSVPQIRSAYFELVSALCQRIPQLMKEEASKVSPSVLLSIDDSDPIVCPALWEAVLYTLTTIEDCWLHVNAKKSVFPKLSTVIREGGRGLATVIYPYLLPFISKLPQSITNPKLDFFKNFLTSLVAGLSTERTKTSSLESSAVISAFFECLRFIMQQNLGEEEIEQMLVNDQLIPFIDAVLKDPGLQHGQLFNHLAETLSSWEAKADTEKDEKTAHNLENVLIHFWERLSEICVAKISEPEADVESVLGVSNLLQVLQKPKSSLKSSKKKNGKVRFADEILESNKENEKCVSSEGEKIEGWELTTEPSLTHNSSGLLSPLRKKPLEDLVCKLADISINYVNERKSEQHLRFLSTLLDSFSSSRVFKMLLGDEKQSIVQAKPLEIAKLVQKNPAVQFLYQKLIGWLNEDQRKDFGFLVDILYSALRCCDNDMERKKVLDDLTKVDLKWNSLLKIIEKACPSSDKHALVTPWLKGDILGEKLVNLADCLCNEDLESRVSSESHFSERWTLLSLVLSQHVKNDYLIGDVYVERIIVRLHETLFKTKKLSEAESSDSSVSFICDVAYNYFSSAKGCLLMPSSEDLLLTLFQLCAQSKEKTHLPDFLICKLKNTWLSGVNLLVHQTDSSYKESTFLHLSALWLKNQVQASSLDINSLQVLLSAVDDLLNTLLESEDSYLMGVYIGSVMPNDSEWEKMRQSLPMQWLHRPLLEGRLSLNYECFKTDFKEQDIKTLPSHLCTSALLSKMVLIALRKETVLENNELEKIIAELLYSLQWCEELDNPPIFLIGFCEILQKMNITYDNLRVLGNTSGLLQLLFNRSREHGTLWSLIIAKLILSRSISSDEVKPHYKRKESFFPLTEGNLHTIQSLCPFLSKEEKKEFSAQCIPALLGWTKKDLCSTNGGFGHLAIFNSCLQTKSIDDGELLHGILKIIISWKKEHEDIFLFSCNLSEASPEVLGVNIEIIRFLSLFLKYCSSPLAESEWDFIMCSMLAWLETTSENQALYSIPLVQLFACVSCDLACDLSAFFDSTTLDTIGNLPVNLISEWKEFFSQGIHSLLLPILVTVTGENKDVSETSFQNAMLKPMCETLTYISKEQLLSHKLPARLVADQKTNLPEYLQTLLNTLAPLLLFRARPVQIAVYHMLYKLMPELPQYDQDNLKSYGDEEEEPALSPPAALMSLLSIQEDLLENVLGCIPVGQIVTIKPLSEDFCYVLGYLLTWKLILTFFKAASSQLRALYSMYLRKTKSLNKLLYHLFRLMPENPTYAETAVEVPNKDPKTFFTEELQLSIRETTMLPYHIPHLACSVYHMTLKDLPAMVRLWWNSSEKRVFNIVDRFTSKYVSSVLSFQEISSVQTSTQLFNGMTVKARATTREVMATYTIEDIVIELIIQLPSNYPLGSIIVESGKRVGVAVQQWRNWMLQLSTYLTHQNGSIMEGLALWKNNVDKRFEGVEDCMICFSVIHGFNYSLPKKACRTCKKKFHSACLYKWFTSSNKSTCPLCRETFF
UniProt P60468: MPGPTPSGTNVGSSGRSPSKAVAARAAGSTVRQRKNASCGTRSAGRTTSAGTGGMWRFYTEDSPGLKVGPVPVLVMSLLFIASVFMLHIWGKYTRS

B1: ZNF598, RQC ubiquitin ligase (protein, UniProt Q86UK7 1-904)
chain: MAAAGGAEGRRAALEAAAAAAPERGGGSCVLCCGDLEATALGRCDHPVCYRCSTKMRVLCEQRYCAVCREELRQVVFGKKLPAFATIPIHQLQHEKKYDIYFADGKVYALYRQLLQHECPRCPELPPFSLFGDLEQHMRRQHELFCCRLCLQHLQIFTYERKWYSRKDLARHRMQGDPDDTSHRGHPLCKFCDERYLDNDELLKHLRRDHYFCHFCDSDGAQDYYSDYAYLREHFREKHFLCEEGRCSTEQFTHAFRTEIDLKAHRTACHSRSRAEARQNRHIDLQFSYAPRHSRRNEGVVGGEDYEEVDRYSRQGRVARAGTRGAQQSRRGSWRYKREEEDREVAAAVRASVAAQQQEEARRSEDQEEGGRPKKEEAAARGPEDPRGPRRSPRTQGEGPGPKETSTNGPVSQEAFSVTGPAAPGCVGVPGALPPPSPKLKDEDFPSLSASTSSSCSTAATPGPVGLALPYAIPARGRSAFQEEDFPALVSSVPKPGTAPTSLVSAWNSSSSSKKVAQPPLSAQATGSGQPTRKAGKGSRGGRKGGPPFTQEEEEDGGPALQELLSTRPTGSVSSTLGLASIQPSKVGKKKKVGSEKPGTTLPQPPPATCPPGALQAPEAPASRAEGPVAVVVNGHTEGPAPARSAPKEPPGLPRPLGSFPCPTPQEDFPALGGPCPPRMPPPPGFSAVVLLKGTPPPPPPGLVPPISKPPPGFSGLLPSPHPACVPSPATTTTTKAPRLLPAPRAYLVPENFRERNLQLIQSIRDFLQSDEARFSEFKSHSGEFRQGLISAAQYYKSCRDLLGENFQKVFNELLVLLPDTAKQQELLSAHTDFCNREKPLSTKSKKNKKSAWQATTQQAGLDCRVCPTCQQVLAHGDASSHQALHAARDDDFPSLQAIARIIT

Columns and labels:
[1] = target: FLAG-BPLF1, viral ubiquitin deconjugase (vDUB) encoded in the N-terminal domain (aa 1-235) of the Epstein-Barr virus large tegument protein BPLF1 (Epstein-Barr virus) (UniProt P03186); experiment: co-IP; lysates of transfected HEK293T cells (NP-40 lysis buffer with protease/phosphatase inhibitors, 20 mM NEM, 20 mM iodoacetamide) incubated with anti-FLAG agarose affinity gel for 3 h at 4 °C; western blot of endogenous partners
[2] = target: T1, ZNF598, RQC ubiquitin ligase (human (endogenous in HEK293T)) (UniProt Q86UK7); experiment: co-IP; lysates of transfected HEK293T cells incubated for 4 h with antibodies to endogenous ZNF598, captured on protein G Sepharose beads; isotype-matched Ig control; western blot
T1 sequence: B1 chain

Row | Molecule | binding [1] | binding [2]
1 | ZAKα kinase (Sterile alpha motif and leucine zipper containing kinase ZAKα) (from UniProt Q9NYL2-1 1-800) | binds | –
2 | Listerin-1 (LTN1), RQC ubiquitin ligase (from UniProt O94822 1-1766) | binds | –
3 | FLAG-BPLF1, viral ubiquitin deconjugase (vDUB) encoded in the N-terminal domain (aa 1-235) of the Epstein-Barr virus large tegument protein BPLF1 (from UniProt P03186 1-235) (domain or fragment) | – | binds
4 | SEC61B, ER translocon subunit (from UniProt P60468 1-96) | binds | –
5 | B1 | binds | –
